This list was built around the results that the source calls inconclusive (neither active nor inactive); the mix of calls is not that of the screen. Potencies beside an inconclusive call are fits to weak or partial responses and may not hold up. Activity calls are given as the source filed them. The call rests on the fitted dose curve; in most records, active means well fitted inhibition curve with a large enough effect; inconclusive means small, poorly fitted or top-dose-only effect; inactive means no such curve, though single readings can be large or run the other way.
Target: Tumor susceptibility gene 101 protein (Homo sapiens) (UniProt Q99816)
Test: qHTS Assay for Iinhibitors of HIV-1 Budding by Blocking the Interaction of PTAP/TSG101: Hit Validation (AID 651600); further: nearly all actives have a fitted effect of over 70% in size
Settings: PTAP peptide/TSG101 UEV interaction, biochemical assay; series mostly up to 57.5 µM
Summary of the method: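 Displacement of a FITC-labeled PTAP-motif peptide (50 nM) from the Tsg101 binding domain (10 uM) was monitored by fluorescence polarization after a 20 min room-temperature incubation.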
Potency means the concentration at half of the fitted maximal effect.

Protein sequences, listed by entry. Tags and fused reporters are not part of them. Lines headed by an entry give the natural chain unless they say otherwise; changes in a name come on top.
UniProt Q99816: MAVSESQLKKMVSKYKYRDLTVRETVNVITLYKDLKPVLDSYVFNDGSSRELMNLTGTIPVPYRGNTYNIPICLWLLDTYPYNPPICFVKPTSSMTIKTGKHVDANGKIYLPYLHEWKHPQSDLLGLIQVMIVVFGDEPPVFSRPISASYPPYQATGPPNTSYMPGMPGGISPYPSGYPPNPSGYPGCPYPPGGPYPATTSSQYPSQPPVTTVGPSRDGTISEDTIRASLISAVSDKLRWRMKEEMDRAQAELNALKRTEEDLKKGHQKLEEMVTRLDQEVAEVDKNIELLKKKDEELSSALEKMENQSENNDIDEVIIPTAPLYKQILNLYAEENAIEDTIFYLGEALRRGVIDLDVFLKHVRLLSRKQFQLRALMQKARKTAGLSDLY

Row | SMILES | Potency
1 | COc1ncnc2c1N=C1CC(C)(C)CC(N)=C1S2 | inconclusive: 32.6 µM [inhibitor, partial curve]
2 | O=C1/C(=N\S(=O)(=O)c2cccs2)C([n+]2ccccc2)=C([O-])c2ccccc21 | inconclusive: 41.1 µM [inhibitor, single point]
3 | Cc1cc(-c2cccs2)c2c(N)c(C(=O)c3ccc4c(c3)OCO4)sc2n1 | inconclusive: 41.1 µM [inhibitor, single point]
4 | COc1ccc(NC(=O)c2nc(-c3ccc(C)cc3)n3c2CCCCC3)cc1 | inactive
5 | CN1CCCc2cc3c(C(F)(F)F)cc(=O)oc3nc21 | inconclusive: 20.6 µM [inhibitor, partial curve, poor fit]
6 | Cc1ccc(NC(=S)Nc2ccc3nc(-c4ccccn4)c(-c4ccccn4)nc3c2)cc1C | inactive
7 | O=C1/C(=C/c2cccc(F)c2)Oc2cc(O)ccc21 | inconclusive: 16.3 µM [inhibitor, partial curve, poor fit]
8 | COc1ccc(-n2c(C)ccc2-c2ccccc2)cn1 | inconclusive: 29.1 µM [inhibitor, single point]
9 | CCCCOc1ccc(C2OC34CCCCC3C(C#N)(C#N)C2(C#N)C(=N)O4)cc1 (stereo not given) | inconclusive: 41.1 µM [inhibitor, single point]
10 | O=[N+]([O-])c1ccc(-c2ccc(/C=N/Nc3nc(N4CCCC4)nc(N4CCCC4)n3)o2)cc1 | inactive
11 | O=C(OCCN1C(=O)c2cccc3c(N4CCOCC4)ccc(c23)C1=O)c1ccc(Cl)cc1 | active: 18.3 µM
12 | Cc1cccc2cc(/C=C3\N=C(c4ccccc4)OC3=O)c(N3CCOCC3)nc12 | inactive
13 | Fc1ccc(C2=CC(c3ccco3)n3ncnc3N2)cc1 (stereo not given) | inactive
14 | CN(C)CCCN1C(=O)c2cccc3c(Br)ccc(c23)C1=O | inconclusive: 29.1 µM [inhibitor, single point]
15 | CC(=O)c1ccc2c(c1)c(C#N)c1ccccc1[n+]2[O-] | inconclusive: 20.6 µM [inhibitor, partial curve]
16 | O=c1cc(CN2CCCc3ccccc32)nc2sccn12 | inconclusive: 16.3 µM [inhibitor, partial curve, poor fit]
17 | CCc1ccccc1N=Cc1c(C)c(C#N)c2[nH]c3ccccc3n2c1=O | inconclusive: 14.6 µM [inhibitor, single point]
18 | O=S(=O)([N-]c1nc2ccccc2nc1-[n+]1ccc(-c2ccncc2)cc1)c1ccccc1 | inconclusive: 13 µM [inhibitor, full curve]
19 | CN1CC=C2C(C#N)=C(N)C(C#N)(C#N)[C@H](c3ccoc3)[C@H]2C1 | inactive
20 | COc1cccc(C2C3CN(C)CC=C3C(C#N)=C(N)C2(C#N)C#N)c1OC (stereo not given) | inconclusive: 46.1 µM [inhibitor, single point]

Some of these compounds in order of molecular weight, smallest number first.
Row | SMILES | Potency
13 | Fc1ccc(C2=CC(c3ccco3)n3ncnc3N2)cc1 (stereo not given) | inactive
16 | O=c1cc(CN2CCCc3ccccc32)nc2sccn12 | inconclusive: 16.3 µM [inhibitor, partial curve, poor fit]
14 | CN(C)CCCN1C(=O)c2cccc3c(Br)ccc(c23)C1=O | inconclusive: 29.1 µM [inhibitor, single point]

Further structures follow:

Row | SMILES | Potency
21 | Cc1ccc(N2C3=C(C(=O)CC(C)(C)C3)C(c3cn(C)nc3C)C3=C2CC(C)(C)CC3=O)cc1 | inconclusive: 25.9 µM [inhibitor, partial curve, poor fit]
22 | O=Cc1nccc2ccccc12 | inconclusive: 20.6 µM [inhibitor, partial curve, poor fit]
23 | CCn1nc(-c2ccccc2)c2nc3ccccc3nc21 | inconclusive: 16.3 µM [inhibitor, partial curve]
24 | CCOc1ccc(N(CC(=O)NCc2ccc(F)cc2)S(=O)(=O)c2c(C)noc2C)cc1 | inactive
25 | NC(=O)c1ccccc1NCC(=O)c1ccc(F)cc1 | inactive
26 | CCCCC(=O)NC1=NC(=O)C(C)(C)S1 | inactive
27 | Cc1c(C(=O)Nc2cccc(C(F)(F)F)c2)sc2nc3n(c(=O)c12)CCCC3 | inactive
28 | Cn1c(=O)c(NC2CCCCC2)c2c3c(cccc31)C(=O)c1ccccc1-2 | inconclusive: 11.6 µM [inhibitor, partial curve]
29 | CC1C2C(C)N(C)C(=O)N(C)C2N(C)C(=O)N1C (stereo not given) | inconclusive: 29.1 µM [inhibitor, single point]
30 | c1ccc2c(c1)CCCN2Cc1nnnn1CC1CCCO1 (stereo not given) | inactive
31 | Nc1cccc(N2C(=O)c3cccc4c(N)ccc(c34)C2=O)c1 | active: 4.11 µM
32 | C1=C(c2ccc(-c3ccccc3)cc2)Nc2ncnn2C1c1ccco1 (stereo not given) | inactive
33 | O=C(NCC1CCCO1)c1cccc2c1C(=O)c1ccc(N3CCC(Cc4ccccc4)CC3)cc1S2(=O)=O (stereo not given) | inconclusive: 46.1 µM [inhibitor, single point]
34 | CCc1cccc(CC)c1NC(=O)CSc1nnc(C2CC2)n1C | inactive
35 | Fc1ccc(C2=CC(c3ccc(Br)o3)n3ncnc3N2)cc1 (stereo not given) | inconclusive: 32.6 µM [inhibitor, single point]
36 | N=C1CCC(=N)c2c1c(O)c1ccccc1c2O | inconclusive: 32.6 µM [inhibitor, single point]
37 | Cc1ccc[n+](-c2nc([O-])sc2/C=N/Nc2ccc([N+](=O)[O-])cc2)c1 | inconclusive: 11.6 µM [inhibitor, full curve]
38 | O=Cc1ccc2noc(-c3ccc(F)cc3)c2c1 | inconclusive: 32.6 µM [inhibitor, single point]
39 | Cc1ccc(NC(=O)/C(C#N)=C(\N)C(Cl)(Cl)Cl)nc1 | active: 18.3 µM
40 | Cc1nn(-c2ccccc2)c(N2CCCC2)c1/C=C1\N=C(c2ccc(F)cc2)OC1=O | inconclusive: 41.1 µM [inhibitor, single point]
